Reference: the supplement of paper PMC10689618
Where “and” joins values, the source holds several entries; their conditions need not be identical. Equal values may be shown once. Where a name gives a salt, the structure may show the parent alone. The list shows a part of the results. Single values are uncertain, as repeats are few or missing.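 Primary human fetal astrocytes engulfed labelled rat cortical synaptosomes, measured as a red/green ratio corrected for calcein live-cell signal and scaled to the plate median. Toxicity meant calcein falling over 30%; decreased phagocytosis meant below 70% of median above 5 µM.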

How the values were obtained:
Conditions in all cases: 24 h
Human fetal astrocytes [1] = assay: loss of total cells relative to no-compound high-control median (toxicity); higher = more toxic (fewer cells)
Human fetal astrocytes [2] = assay: synaptosome phagocytosis (pHrodo/calcein intensity ratio) relative to plate median of data wells; higher = more phagocytosis
Human fetal astrocytes [3] = assay: loss of total cells relative to no-compound high-control median (toxicity); higher = more toxic (fewer cells); remark: listed apart in the source
Human fetal astrocytes [4] = assay: synaptosome phagocytosis (pHrodo/calcein intensity ratio) relative to plate median of data wells; higher = more phagocytosis; remark: listed apart in the source

Row | Compound | loss of total cells (Human fetal astrocytes [1]; 1.39 µM) | loss of total cells (Human fetal astrocytes [1]; 2.78 µM) | loss of total cells (Human fetal astrocytes [1]; 5.56 µM) | loss of total cells (Human fetal astrocytes [1]; 11.11 µM) | loss of total cells (Human fetal astrocytes [1]; 22.22 µM) [%] | synaptosome phagocytosis (Human fetal astrocytes [2]; 1.39 µM) | synaptosome phagocytosis (Human fetal astrocytes [2]; 2.78 µM) | synaptosome phagocytosis (Human fetal astrocytes [2]; 5.56 µM) | synaptosome phagocytosis (Human fetal astrocytes [2]; 11.11 µM) | synaptosome phagocytosis (Human fetal astrocytes [2]; 22.22 µM) | loss of total cells (Human fetal astrocytes [3]; 1.39 µM) [%] | loss of total cells (Human fetal astrocytes [3]; 2.78 µM) [%] | loss of total cells (Human fetal astrocytes [3]; 5.56 µM) [%] | loss of total cells (Human fetal astrocytes [3]; 11.11 µM) [%] | loss of total cells (Human fetal astrocytes [3]; 22.22 µM) [%] | synaptosome phagocytosis (Human fetal astrocytes [4]; 1.39 µM) [%] | synaptosome phagocytosis (Human fetal astrocytes [4]; 2.78 µM) [%] | synaptosome phagocytosis (Human fetal astrocytes [4]; 5.56 µM) [%] | synaptosome phagocytosis (Human fetal astrocytes [4]; 11.11 µM) [%] | synaptosome phagocytosis (Human fetal astrocytes [4]; 22.22 µM) [%]
1 | CO[C@H]1[C@H](O)[C@@H](O)[C@H](O)[C@H](O)[C@H]1O | -13.9% | 4% | -15.4% | -6.8% | -11.1 | 106% | 101% | 88.7% | 127% | 85.5% | – | – | – | – | – | – | – | – | – | –
2 | COc1cccc2c1CCC1CC(=O)CC[C@]21C (some centres undefined) | -27.2% | 12% | -16.8% | 10.3% | -8.5 | 83.3% | 108% | 88.6% | 103% | 116% | – | – | – | – | – | – | – | – | – | –
3 | CC(=O)OCC[N+](C)(C)C | -10% | -9.5% | -6.9% | -11.7% | 16.4 | 123% | 113% | 90.5% | 139% | 102% | – | – | – | – | – | – | – | – | – | –
4 | C[C@H](CCC(=O)O)[C@H]1CC[C@H]2[C@@H]3C(=O)C[C@@H]4CC(=O)CC[C@]4(C)[C@H]3CC(=O)[C@]12C | 11.6% and 3.9% | -13.9% and 10.5% | -7.7% and 4.9% | 6.6% and -0.9% | – | 99.6% and 113% | 104% and 84.4% | 96.5% and 104% | 102% and 95.8% | 118% and 116% | – | – | – | – | – | – | – | – | – | –
5 | O=C(Oc1cc(O)cc2c1C[C@@H](OC(=O)c1cc(O)c(O)c(O)c1)[C@@H](c1cc(O)c(O)c(O)c1)O2)c1cc(O)c(O)c(O)c1 | -16.3% | -6.6% | 5.3% | 24.5% | 29.3 | 101% | 119% | 80.2% | 106% | 152% | – | – | – | – | – | – | – | – | – | –
6 | COc1ccc2oc(-c3ccccc3)c(OC)c(=O)c2c1 | -32% | -7.6% | -18.3% | 3.4% | 8.9 | 60.8% | 77.2% | 71.8% | 71% | 94.6% | – | – | – | – | – | – | – | – | – | –
7 | CC[C@@H]1C(=O)OC[C@@H]1Cc1cncn1C [(+)-Pilocarpine hydrochloride] | -2.7% | -15.3% | -5.6% | -8.4% | 19.8 | 109% | 120% | 99.9% | 110% | 106% | -8.1 | -2.3 | -3.3 | 3.8 | 11.2 | 88.6 | 74.9 | 122 | 119 | 77.1
8 | Nc1c2c(nc3ccccc13)CCCC2O (centres undefined) [Hydroxytacrine maleate] | 10.5% | 15.5% | 9.4% | -2.1% | 18.9 | 99.8% | 100% | 99% | 105% | 105% | -9.6 | -5.1 | 3.3 | -29.1 | 12 | 116 | 111 | 115 | 121 | 134
9 | O=C1CCC(N2C(=O)c3ccccc3C2=O)C(=O)N1 (racemic) [(±)-Thalidomide] | -43.5% | -13.5% | 20.5% | 25.2% | 20.2 | 106% | 123% | 126% | 104% | 138% | -14.6 | -20.1 | -13.5 | 6.5 | 1.6 | 126 | 125 | 116 | 110 | 106

Some values from the entries so far:
synaptosome phagocytosis (Human fetal astrocytes [2]; 22.22 µM), `COc1ccc2oc(-c3ccccc3)c(OC)c(=O)c2c1` reads 94.6%
synaptosome phagocytosis (Human fetal astrocytes [2]; 2.78 µM), `O=C(Oc1cc(O)cc2c1C[C@@H](OC(=O)c1cc(O)c(O)c(O)c1)[C@@H](c1cc(O)c(O)c(O)c1)O2)c1cc(O)c(O)c(O)c1` reads 119%
